Reference: paper doi:10.1101/2022.05.26.493655

Protein sequences, listed by entry. Tags and fused reporters are not part of them.
UniProt Q13601: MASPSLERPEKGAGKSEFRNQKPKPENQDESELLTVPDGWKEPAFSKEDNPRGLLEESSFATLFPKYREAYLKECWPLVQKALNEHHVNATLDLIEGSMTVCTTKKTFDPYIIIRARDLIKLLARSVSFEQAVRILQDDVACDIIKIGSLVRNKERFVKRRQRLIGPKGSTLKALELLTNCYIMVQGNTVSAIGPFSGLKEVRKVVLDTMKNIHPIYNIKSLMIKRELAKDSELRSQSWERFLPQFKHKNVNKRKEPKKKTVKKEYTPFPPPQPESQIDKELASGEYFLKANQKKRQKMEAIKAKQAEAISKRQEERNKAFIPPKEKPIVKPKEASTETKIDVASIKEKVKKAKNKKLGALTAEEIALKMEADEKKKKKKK
UniProt Q15024: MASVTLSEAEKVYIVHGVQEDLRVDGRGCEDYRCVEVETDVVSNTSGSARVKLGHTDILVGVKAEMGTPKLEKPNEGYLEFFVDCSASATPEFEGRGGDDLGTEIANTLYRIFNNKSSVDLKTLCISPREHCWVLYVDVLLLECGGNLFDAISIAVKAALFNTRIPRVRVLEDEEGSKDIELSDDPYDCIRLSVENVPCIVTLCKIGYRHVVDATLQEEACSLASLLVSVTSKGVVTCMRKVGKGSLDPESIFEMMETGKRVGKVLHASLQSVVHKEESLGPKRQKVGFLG

T1: GFP-ZNF692 WT (zinc finger protein 692), expressed in HCT116 cells (human) (UniProt Q9BU19)
T1 sequence: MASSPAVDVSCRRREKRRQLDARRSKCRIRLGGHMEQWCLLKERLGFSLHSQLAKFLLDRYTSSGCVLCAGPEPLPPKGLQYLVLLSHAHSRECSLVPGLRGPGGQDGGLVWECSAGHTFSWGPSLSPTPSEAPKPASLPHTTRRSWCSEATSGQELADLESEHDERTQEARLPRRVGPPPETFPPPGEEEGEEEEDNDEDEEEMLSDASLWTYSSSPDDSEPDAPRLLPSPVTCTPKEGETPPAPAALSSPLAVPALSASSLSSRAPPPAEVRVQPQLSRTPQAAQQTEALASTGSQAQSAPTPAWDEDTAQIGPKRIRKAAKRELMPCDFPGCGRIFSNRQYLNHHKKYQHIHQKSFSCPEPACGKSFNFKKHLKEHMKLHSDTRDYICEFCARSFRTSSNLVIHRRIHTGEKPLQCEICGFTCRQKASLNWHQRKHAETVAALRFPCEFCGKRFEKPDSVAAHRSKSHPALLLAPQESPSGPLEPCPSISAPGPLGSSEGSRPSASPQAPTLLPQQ

B1: RCL1 (protein, UniProt Q9Y2P8 1-373)
chain: MATQAHSLSYAGCNFLRQRLVLSTLSGRPVKIRKIRARDDNPGLRDFEASFIRLLDKITNGSRIEINQTGTTLYYQPGLLYGGSVEHDCSVLRGIGYYLESLLCLAPFMKHPLKIVLRGVTNDQVDPSVDVLKATALPLLKQFGIDGESFELKIVRRGMPPGGGGEVVFSCPVRKVLKPIQLTDPGKIKRIRGMAYSVRVSPQMANRIVDSARSILNKFIPDIYIYTDHMKGVNSGKSPGFGLSLVAETTSGTFLSAELASNPQGQGAAVLPEDLGRNCARLLLEEIYRGGCVDSTNQSLALLLMTLGQQDVSKVLLGPLSPYTIEFLRHLKSFFQIMFKIETKPCGEELKGGDKVLMTCVGIGFSNLSKTLK
B2: IMP3 (protein, UniProt Q9NV31 1-184)
chain: MVRKLKFHEQKLLKQVDFLNWEVTDHNLHELRVLRRYRLQRREDYTRYNQLSRAVRELARRLRDLPERDQFRVRASAALLDKLYALGLVPTRGSLELCDFVTASSFCRRRLPTVLLKLRMAQHLQAAVAFVEQGHVRVGPDVVTDPAFLVTRSMEDFVTWVDSSKIKRHVLEYNEERDDFDLEA
B3: NOP2 (protein, UniProt P46087 1-812)
chain: MGRKLDPTKEKRGPGRKARKQKGAETELVRFLPAVSDENSKRLSSRARKRAAKRRLGSVEAPKTNKSPEAKPLPGKLPKGISAGAVQTAGKKGPQSLFNAPRGKKRPAPGSDEEEEEEDSEEDGMVNHGDLWGSEDDADTVDDYGADSNSEDEEEGEALLPIERAARKQKAREAAAGIQWSEEETEDEEEEKEVTPESGPPKVEEADGGLQINVDEEPFVLPPAGEMEQDAQAPDLQRVHKRIQDIVGILRDFGAQREEGRSRSEYLNRLKKDLAIYYSYGDFLLGKLMDLFPLSELVEFLEANEVPRPVTLRTNTLKTRRRDLAQALINRGVNLDPLGKWSKTGLVVYDSSVPIGATPEYLAGHYMLQGASSMLPVMALAPQEHERILDMCCAPGGKTSYMAQLMKNTGVILANDANAERLKSVVGNLHRLGVTNTIISHYDGRQFPKVVGGFDRVLLDAPCSGTGVISKDPAVKTNKDEKDILRCAHLQKELLLSAIDSVNATSKTGGYLVYCTCSITVEENEWVVDYALKKRNVRLVPTGLDFGQEGFTRFRERRFHPSLRSTRRFYPHTHNMDGFFIAKFKKFSNSIPQSQTGNSETATPTNVDLPQVIPKSENSSQPAKKAKGAAKTKQQLQKQQHPKKASFQKLNGISKGADSELSTVPSVTKTQASSSFQDSSQPAGKAEGIREPKVTGKLKQRSPKLQSSKKVAFLRQNAPPKGTDTQTPAVLSPSKTQATLKPKDHHQPLGRAKGVEKQQLPEQPFEKAAFQKQNDTPKGPQPPTVSPIRSSRPPPAKRKKSQSRGNSQLLLS

Target: T1, GFP-ZNF692 WT (zinc finger protein 692), expressed in HCT116 cells (human)
Assay: affinity purification with mass spectrometry

| Molecule | binding |
| --- | --- |
| KRR1 (from UniProt Q13601 1-381) | binds |
| EXOSC7 (from UniProt Q15024 1-291) | binds |
| B1 | binds |
| B2 | binds |
| B3 | binds |

No constants are given. Whether binding was seen depends on the method and setting. In cells and extracts the contact can be indirect. A yes stands for co-enrichment or nearness to the bait. Other partners may have been found. Where a sequence is shown, tags or fusion partners need not be part of it.
